The results in this text go back to doi:10.1101/2025.09.29.679124 (bioRxiv, 2025).

Where two headings read alike, the source gives them in different places. No constants are given. Whether binding was seen depends on the method and setting. Binding can be weak; no strength is given. Tags and fused reporters may be left off the sequences shown.

Holding throughout (assay): pull-down
Assay [1] has as its target MBP-His-OsSMAX1-D2 (638-1041) (rice (Oryza sativa)).
For assay [2], the target named is MBP-His-tagged full-length OsSMAX1 (residues 2-1041) (rice (Oryza sativa)).
The target of assay [3] is MBP-His-OsSMAX1-D1M (218-541) (rice (Oryza sativa)).
In assay [4] the target is MBP-His-OsSMAX1-D2 (638-1041) (rice (Oryza sativa)). The source holds these as a separate data set.
Assay [5] has as its target MBP-His-OsSMAX1-D1M (218-541) (rice (Oryza sativa)). This is another data set of the same source.
Assay [6] has as its target MBP-His-tagged full-length OsSMAX1 (residues 2-1041) (rice (Oryza sativa)). This is another data set of the same source.

B1: GST-D14 (50-318) (receptor, rice (Oryza sativa), UniProt Q10QA5 50-318, looked up)
chain: APSGAKLLQILNVRVVGSGERVVVLSHGFGTDQSAWSRVLPYLTRDHRVVLYDLVCAGSVNPDHFDFRRYDNLDAYVDDLLAILDALRIPRCAFVGHSVSAMIGILASIRRPDLFAKLVLIGASPRFLNDSDYHGGFELEEIQQVFDAMGANYSAWATGYAPLAVGADVPAAVQEFSRTLFNMRPDISLHVCQTVFKTDLRGVLGMVRAPCVVVQTTRDVSVPASVAAYLKAHLGGRTTVEFLQTEGHLPHLSAPSLLAQVLRRALARY
As to B1, the binding result in assay [1] is listed as “binds”.

B2: Glutathione-S-transferase (GST)-tagged D14L (receptor, rice (Oryza sativa), UniProt Q10J20 1-271, looked up)
chain: MGIVEEAHNLRVVGEGKRGVIVLAHGFGTDQSVWKHLVPHLVADYRVVLFDTMGAGPTNPDYFDFSRYATLEGYALDLLAILQELRVASCIYVGHSVSAVIGAIASISRPDLFSKLVLLSASPRYLNDVDYYGGFEQEDLDELFEAMGSNYKAWCSGFAPLCVGGDMESVAVQEFSRTLFNIRPDIALSVAQTIFQSDVRSLLPLVTVPCHIVQSTKDLAVPVVVSEYLHKHLGGDSIVEVMPSEGHLPQLSSPDIVIPVLLRHIQHDIAV
Take B2: the binding entry in assay [2] is reported as “binds”; in assay [3], “binds”; in assay [4] it was “binds weakly”; in assay [5], “binds”; in assay [6], “binds”; in assay [1] it was “binds”.
